Binding data for one molecule are collected here from paper PMC10995098.

Chains of the proteins cited; added tags and fusions are not shown.
UniProt O95758: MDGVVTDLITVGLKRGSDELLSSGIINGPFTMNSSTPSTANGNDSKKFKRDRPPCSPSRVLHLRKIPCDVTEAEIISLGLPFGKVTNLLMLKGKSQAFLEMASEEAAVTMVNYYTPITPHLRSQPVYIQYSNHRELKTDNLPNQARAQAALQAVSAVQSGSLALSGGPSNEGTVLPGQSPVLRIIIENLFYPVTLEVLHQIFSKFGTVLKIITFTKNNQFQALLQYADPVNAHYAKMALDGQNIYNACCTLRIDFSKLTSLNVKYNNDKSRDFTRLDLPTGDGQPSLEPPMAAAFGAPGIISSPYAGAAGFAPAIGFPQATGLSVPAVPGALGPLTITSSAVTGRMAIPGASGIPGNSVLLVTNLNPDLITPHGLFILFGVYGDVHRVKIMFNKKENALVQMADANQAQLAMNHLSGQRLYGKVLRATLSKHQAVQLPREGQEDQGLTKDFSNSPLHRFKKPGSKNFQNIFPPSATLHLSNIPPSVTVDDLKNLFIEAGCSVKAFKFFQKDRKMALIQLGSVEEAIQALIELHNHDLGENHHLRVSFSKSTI

These are yes or no findings as the source states them, for the method shown. Binding seen in cells or lysates may run through a third protein. Some entries that bind do so weakly or less than the wild type.

This experiment has as its target Regulator of differentiation 1 (ROD1) (human) (UniProt O95758). The experiment in a line: co-IP; cells, bait and precipitating antibody not told; no methods section for the co-IP.

B1: SRSF3 (protein, UniProt P84103 1-164)
chain: MHRDSCPLDCKVYVGNLGNNGNKTELERAFGYYGPLRSVWVARNPPGFAFVEFEDPRDAADAVRELDGRTLCGCRVRVELSNGEKRSRNRGPPPSWGRRPRDDYRRRSPPPRRRSPRRRSFSRSRSRSLSRDRRRERSLSRERNHKPSRSFSRSRSRSRSNERK
Regarding B1, the binding result was “binds”.
